The values that follow come from PubChem BioAssay AID2685 (National Center for Advancing Translational Sciences (NCATS), 2010).

A short description of the experiment: qHTS Assay for Lipid Storage Modulators in Drosophila S3 Cells.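 As to cell number change: cells counted by Cell Tracker Red CMTPX staining in the red channel.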 The following applies: BODIPY lipid droplet fluorescence, 18-24 h; for cell number change: measured here: cell count max response, cells fed with added oleic acid. In short, it runs like this: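 Laser-scanning cytometry quantifies lipid droplet accumulation (500–530 nm total intensity; droplet/cell object ratio) in oleic acid-fed (400 uM added) Drosophila S3 cells treated with a concentration series. 20 uM Triacsin C defined 100% inhibition.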
In general terms: In qHTS, concentration-response curves come from the screen itself.

Setting [1] is: measured here: cell number channel AC50, cells fed with added oleic acid.
Setting [2] is: measured here: lipid fluorescence (Fed channel) AC50, cells fed with added oleic acid.

The list shows a part of the results. The main result of the screen is listed elsewhere. These columns were measured beside it and carry no call. The list favours compounds with an active or inconclusive main result. Words in brackets tell the shape of the fitted curve; partial curves, single points and poor fits give uncertain potencies.

Usually AC50 stands for the concentration giving half of the maximal activity seen. For `CCOc1cc(N2CCOCC2)c(OCC)cc1NC(=O)C1CCCC1`, the cell number change is 58.7%. Under setting [1], the AC50 is 16.4 µM [rising, single point].
Consider `Cc1ccc(N(Cc2cc(=O)[nH]c3ccccc23)C(=O)C(C)C)cc1`, for which the cell number change was -7.58%.
Same read-out and setting: in the case of `CC(=O)OCC1(C)CN(c2ccccc2)N(C(=O)c2ccc(C(C)(C)C)cc2)C1=O` (stereo not drawn) it was -13.1%.
Turning to `COc1ccc(-c2ccc(/C=N/NC(=O)c3cccnc3)o2)c([N+](=O)[O-])c1`, the AC50 under setting [2] is 6.51 µM [falling, single point].
For the molecule `COc1ccc(/C=N/Nc2ccccn2)cc1OC`, the cell number change worked out at 18.8%. The AC50 under setting [1] was 2.31 µM [rising, single point]. In addition, the AC50 under setting [2] is 3.66 µM [rising, full curve].
Take `CCC(C)(C)NC(=O)CN(C(=O)CCC(=O)Nc1ccccn1)c1ccc(F)c(Cl)c1`: the cell number change came to 56.8%. Further, the AC50 under setting [1] is 10.3 µM [rising, partial curve].
Regarding `CC(=O)Nc1ccc(C(=O)N2CCN(C(=O)c3ccco3)CC2)cc1`, the cell number change was -11.6%. Further, the AC50 under setting [2] was 0.231 µM [falling, full curve].
Regarding `CC(O)CNc1nc2ccccc2n1CC(=O)NCCc1ccc(Cl)cc1` (stereo not drawn), the AC50 was 0.92 µM [rising, partial curve] under setting [1] and 0.366 µM [rising, full curve] under setting [2].
With `C=CCOc1cccc(C2C(C(=O)c3cccs3)=C(O)C(=O)N2Cc2cccnc2)c1` (stereo not drawn), the cell number change turned out to be 8.68%. The AC50 under setting [2] was 3.66 µM [rising, full curve, poor fit].
`Cc1nn2c(-c3cccc(NC(=O)c4ccco4)c3)nnc2c2ccccc12`: the AC50 reads like this: under setting [1], 0.116 µM [rising, full curve]; under setting [2], 0.116 µM [rising, full curve, poor fit].
Turning to `Cc1ccccc1C1C(C#N)=C2N=C(N)c3c(sc4c3CCCCC4)N2C2=C1C(=O)CCC2` (stereo not drawn), the cell number change was -0.891%. Also, under setting [1], the AC50 was 0.00651 µM [falling, full curve, poor fit]. Under setting [2], the AC50 was 29.1 µM [falling, single point].
In the case of `CC(=O)NC(Cc1ccc(F)cc1)C(=O)NC1CCN(C(=O)Nc2cccc(C)c2)CC1` (stereo not drawn), the cell number change came out at 23.8%.
`CC1CCCN(C(=O)CNS(=O)(=O)c2cccs2)C1` (stereo not drawn): the cell number change amounted to 2.61%. Also, under setting [2], the AC50 was 6.51 µM [falling, single point].
For `Cc1ccc(NC(=O)c2cccc(-n3cnnn3)c2)cc1Cl`, the cell number change is -11.4%. Under setting [2], the AC50 was 0.58 µM [falling, full curve, poor fit].
As for `Cc1cccc(NC(=O)CSc2nc3ccccc3c(=O)n2C)c1`, the cell number change was -31.5%. Under setting [1], the AC50 was 7.31 µM [falling, partial curve].
With `CCN1C(=O)Cc2cc(S(=O)(=O)N3CCOCC3)ccc21`, the AC50 reads like this: under setting [1], 6.51 µM [falling, single point]; under setting [2], 6.51 µM [falling, partial curve, poor fit].
Consider `C=CCc1c(C)nc(-c2ccccc2)nc1N/N=C(\C)c1ccccc1`, for which the cell number change stood at 29.7%. The AC50 under setting [1] was 1.46 µM [rising, full curve, poor fit].
Take `Cc1ccc(-n2c(SCc3nc4ccccc4c(=O)[nH]3)nnc2-c2ccccc2O)cc1`: the cell number change is -0.623%. Also, under setting [2], the AC50 was 2.06 µM [rising, partial curve].
For the molecule `Cc1c(NC(=O)c2cc(C3CC3)on2)c(=O)n(-c2ccccc2)n1C`, the cell number change turned out to be 25%. For the same molecule, under setting [2], the AC50 was 29.1 µM [rising, single point].
In the case of `Cc1ccc(S(=O)(=O)n2nccc2-c2c(-c3ccccc3)noc2C)cc1`, the cell number change is 11.1%. Moreover, the AC50 under setting [1] is 1.84 µM [rising, partial curve, poor fit]. In addition, the AC50 under setting [2] is 2.06 µM [rising, partial curve].
As to `O=C(CN1CCCCC1)Nc1ccccc1NC(=O)CN1CCCCC1`, the cell number change is -122%. Also, the AC50 under setting [1] is 20.6 µM [falling, partial curve]. Moreover, the AC50 under setting [2] was 23.1 µM [falling, partial curve].
Consider `Cc1cc(=O)oc2cc3c(cc12)OCO3`, for which the cell number change was 69%. Moreover, the AC50 under setting [1] was 29.1 µM [rising, single point].
Consider `O=C1CCN(CCCc2ccccc2)CCN1[C@H](CO)c1ccccc1`, for which the cell number change was 18%. The AC50 under setting [2] was 5.8 µM [rising, full curve].
In the case of `O=[N+]([O-])c1ccc(N2CCN(c3ccccc3O)CC2)c(Cl)c1`, the cell number change was -30.6%.
Take `COc1ccc(CCN(C)C(=O)c2ccc(S(=O)(=O)NCc3ccco3)cc2)cc1OC`: the cell number change is -50%. Besides, the AC50 under setting [1] was 29.1 µM [falling, single point].
Regarding `Cc1ccc2cccc(OCc3ccccc3)c2n1`, the cell number change was 8.89%.
For `CCCC(=O)NC(=S)Nc1cccc2c(O)cccc12`, the cell number change worked out at 44.1%. In addition, the AC50 under setting [1] was 16.4 µM [rising, single point]. Besides, under setting [2], the AC50 was 29.1 µM [rising, single point].
Turning to `CC1=NN(c2ccc(N)cc2)C(=O)C1`, the cell number change was -0.131%. The AC50 under setting [2] is 0.651 µM [falling, single point].
As to `CCN(CC(=O)Nc1ccc(NC(C)=O)cc1)CC(=O)Nc1ccccc1C(=O)c1ccccc1`, the cell number change was -73.8%. Under setting [1], the AC50 was 0.116 µM [falling, full curve, poor fit]. The AC50 under setting [2] was 0.461 µM [falling, full curve].
Consider `Cc1ccc(NC(=S)c2nc3ccccc3s2)cc1`, for which the cell number change is -69.3%. The AC50 under setting [1] is 25.9 µM [falling, single point]. The AC50 under setting [2] was 29.1 µM [falling, single point].
Regarding `COc1ccc(NC(=O)c2cn(CCC#N)nc2-c2cc3ccccc3o2)cc1`, the cell number change is -14%. The AC50 under setting [2] was 29.1 µM [falling, single point].
With `Cc1ccccc1NC(=O)CCN1CCN(C)CC1`, the cell number change came to 15.1%.
Regarding `Cc1ccc(C)c(NC(=O)COC(=O)c2nc(Cl)ccc2Cl)c1`, the cell number change was 50.7%. In addition, under setting [1], the AC50 was 0.00517 µM [rising, full curve, poor fit]. The concentration at half-maximal activity (AC50) under setting [2] is 0.0651 µM [rising, full curve, poor fit].
On to `O=C(c1nc2ccc(Cl)cn2c1CN1CCCC1)N1CCc2ccccc2C1`, for which the cell number change is -22%.
Turning to `Cc1ccccc1NC(=O)C(=O)c1cn(C)c2ccccc12`, the cell number change came out at 23.1%. Also, the AC50 under setting [2] is 4.61 µM [rising, partial curve, poor fit].
With `O=C(COc1ccc(S(=O)(=O)N2CCCCC2)cc1)N1CCCCCC1`, the cell number change was determined as 15%. The AC50 under setting [2] was 0.651 µM [falling, single point].
For `O=C(CCl)Nc1ccccc1Sc1ccccc1`, the cell number change is -0.266%. For the same molecule, under setting [2], the AC50 is 4.61 µM [rising, full curve, poor fit].
For `CCCC1=C/C(=C/c2ccc(-c3ccccc3OC)o2)C(=O)O1`, the cell number change was 11.6%. The AC50 under setting [2] was 0.92 µM [rising, full curve].
Consider `Cc1ccc(Nc2nc(C)cc(C)n2)c(Br)c1`, for which the cell number change came to 10.2%. Further, the AC50 under setting [1] was 5.8 µM [rising, single point]. Besides, the AC50 under setting [2] is 5.17 µM [rising, full curve].
For the molecule `Cc1cc2cc(CNC(=S)Nc3ccc(OC(F)F)cc3)ccc2[nH]1`, the cell number change was found to be 4.49%. The AC50 under setting [2] is 0.92 µM [rising, full curve, poor fit].
In the case of `CO[C@H]1O[C@H](C)[C@@H](O)C[C@H]1NC(=O)OCc1ccccc1`, the cell number change was determined as 3.57%.
On to `Cc1ccc(NC(=O)C2C(=O)N(C)c3ccccc32)cc1` (stereo not drawn), for which the cell number change is -3.7%. In addition, the AC50 under setting [2] was 2.06 µM [falling, partial curve].
For `Cc1nc(Nc2ccc(Cl)cc2)c(C#N)c(=O)[nH]1`, the cell number change turned out to be 23.5%. Besides, the AC50 under setting [2] is 29.1 µM [rising, single point].
Regarding `CN[C@@H]1CC[C@H](c2ccc(Cl)c(Cl)c2)c2ccccc21`, the cell number change is -36.9%. Besides, under setting [1], the AC50 is 32.6 µM [falling, single point].
In the case of `COCCNC(=O)CN1CCOc2ccccc21`, the cell number change came to 16.2%. Under setting [2], the AC50 is 6.51 µM [rising, partial curve, poor fit].
With `CN1/C(=C\C(=O)C[n+]2ccc(C(=O)c3ccccc3)cc2)C(C)(C)c2ccccc21`, the cell number change is -27.7%. In addition, the AC50 under setting [2] is 18.4 µM [falling, single point].
As to `Brc1cccc(OCCn2ccnc2)c1`, the cell number change was 127%. Besides, the AC50 under setting [1] was 9.2 µM [rising, partial curve]. The AC50 under setting [2] was 4.11 µM [rising, partial curve].
For `Cc1cc(C(=O)CSc2nc(N)cc(N)n2)c(C)n1C1CC1`, the cell number change is -9.4%. Further, the AC50 under setting [1] was 0.13 µM [falling, full curve].
For the molecule `CCOC(=O)[C@H]1[C@H]2COc3ccc(C)cc3[C@@H]2N2C(=O)[C@@H](CO)NC(=O)[C@@]12C`, the cell number change was -13.4%. Further, the AC50 under setting [2] was 3.26 µM [falling, full curve, poor fit].
For the molecule `CN1CCN(C(=O)c2ccccc2NC(=O)c2ccccc2)CC1`, the cell number change came out at 7.8%. Further, under setting [2], the AC50 is 4.61 µM [rising, partial curve].
With `CC(CNC(=O)c1ccc(C(C)(C)C)cc1)CN(C)C` (stereo not drawn), the cell number change was -13.2%. Moreover, the AC50 under setting [2] is 0.00461 µM [falling, full curve, poor fit].
In the case of `COc1ccc(C2CC(c3ccccc3O)=NN2C(=O)c2ccccc2)cc1OC` (stereo not drawn), the cell number change was -31.5%. Besides, the AC50 under setting [1] is 0.13 µM [falling, full curve, poor fit].
Turning to `COc1ccc(-c2ccc(/C=C3/C(=N)N4C(C)=CSC4=NC3=O)o2)c([N+](=O)[O-])c1`, the cell number change was -19.3%.
As to `CCOCCCNCC(=O)Nc1ccc(OC(F)(F)F)cc1`, the cell number change came to 47.4%. Moreover, the AC50 under setting [1] was 32.6 µM [rising, single point].
Regarding `CC(=O)N1CCN(c2ccc(NC(=O)c3ccccc3)cc2)CC1`, the cell number change was found to be 10.8%. Besides, under setting [2], the AC50 was 29.1 µM [rising, single point].
Take `CCCCn1c(N)c(N(CCOC)C(=O)COC(=O)CCOc2ccc(C)cc2)c(=O)[nH]c1=O`: the cell number change was -13.3%. For the same molecule, the AC50 under setting [2] was 1.46 µM [falling, full curve].
With `COc1ccc(N2CCN(C(=O)Cn3cnc4sc(C)c(S(=O)(=O)N5CCOCC5)c4c3=O)CC2)cc1`, the cell number change turned out to be 16.2%. The AC50 under setting [2] is 0.206 µM [rising, full curve].
Turning to `O=C(c1cccs1)[C@@H]1[C@@H]2C(=O)N(Cc3ccc4c(c3)OCO4)C(=O)[C@@H]2C2c3ccccc3C=CN21` (stereo partly drawn), the cell number change was found to be 35.6%. The AC50 under setting [1] is 2.06 µM [rising, partial curve].
For the molecule `COc1ccc2cc3cc(C(=O)NCCN4CCc5ccccc5C4)oc3nc2c1`, the cell number change was -14.9%. Moreover, under setting [2], the AC50 is 14.6 µM [falling, single point].
